These are yes or no findings as the source states them, for the method shown. In cells and extracts the contact can be indirect. Some results given as binding are weak or reduced against the parent protein; the word gives no strength.
Tests used:
Dlx3 = Dlx3 (UniProt Q64205); test: co-IP; MD10-F2 cells co-transfected with pcDNA-Dlx3 and pcDNA-Osx-Flag for 72 h; RIPA lysate; IP with anti-Osx or anti-Dlx3 antibody (negative control IgG) and protein A/G plus agarose; washes with 10 mM Tris-HCl pH 8.0, 150 mM NaCl, 10% glycerol, 1% NP-40, 2 mM EDTA; Western blot
Osx = Osx (UniProt Q8VI67); test: as above

Protein sequences, listed by entry. Tags and fused reporters are not part of them.
UniProt Q64205: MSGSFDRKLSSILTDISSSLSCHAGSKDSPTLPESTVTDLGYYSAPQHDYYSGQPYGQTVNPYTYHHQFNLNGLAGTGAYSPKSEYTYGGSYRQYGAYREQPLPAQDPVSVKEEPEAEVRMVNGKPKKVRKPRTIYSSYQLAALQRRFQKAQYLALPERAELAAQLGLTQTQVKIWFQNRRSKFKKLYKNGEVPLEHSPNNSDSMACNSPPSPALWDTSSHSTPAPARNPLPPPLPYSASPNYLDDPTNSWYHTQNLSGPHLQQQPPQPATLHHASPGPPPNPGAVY
UniProt Q8VI67: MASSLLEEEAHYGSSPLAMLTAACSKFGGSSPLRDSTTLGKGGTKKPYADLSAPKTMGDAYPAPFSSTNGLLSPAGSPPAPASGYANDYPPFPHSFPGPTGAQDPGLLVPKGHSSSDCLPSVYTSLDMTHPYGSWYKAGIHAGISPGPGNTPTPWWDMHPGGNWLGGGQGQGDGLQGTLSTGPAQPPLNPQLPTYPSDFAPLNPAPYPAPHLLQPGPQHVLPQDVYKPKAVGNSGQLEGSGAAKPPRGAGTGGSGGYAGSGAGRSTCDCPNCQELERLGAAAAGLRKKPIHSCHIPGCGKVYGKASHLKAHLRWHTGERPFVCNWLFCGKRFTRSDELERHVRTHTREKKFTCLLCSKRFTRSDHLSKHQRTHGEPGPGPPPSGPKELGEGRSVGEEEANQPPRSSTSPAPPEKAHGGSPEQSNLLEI

For Osx (from UniProt Q8VI67 1-428), the binding (Dlx3) was “binds”.

With Dlx3 (from UniProt Q64205 1-287) the binding (Osx) was “binds”.
